Results deposited as PubChem BioAssay AID504774 (Drosophila RNAi Screening Center, 2011).
Test: 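Genes required for cells to withstand methyl methanesulphonate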 (primary screen). Cells: Drosophila Kc167 cells. Knock-down reagent: long dsRNA against Drosophila genes, about 0.25 µg dsRNA per well. Duration: about 6 days: 3 days knock-down, then 3 days with or without MMS. Treatment: methyl methanesulphonate 0.004% (w/v) for 3 days after knock-down. Read-out: 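Viability in wells given MMS, read as ATP luminescence, normalised by quantiles plate by plate and averaged across replicates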. Reading the numbers: mean viability with MMS: higher = more surviving cells after MMS.
In all, the deposit lists about 23,000 reagents; below is an unselected part of those that have a named target and a result. 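Values are quantile-normalised luminescence on an arbitrary scale; higher means more cells surviving MMS.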 Reagents against one gene are numbered here. Further read-outs or replicates are left out here.

After knock-down of CG8298, the screen gave mean viability with MMS 3.68e6. CG4884 showed mean viability with MMS 3.41e6. Against Ca-beta (Ca2+-channel-protein-beta-subunit) #1, the values are mean viability with MMS 3.48e6. Depletion of Ca-beta (Ca2+-channel-protein-beta-subunit) #2 came out at: mean viability with MMS 3.64e6. Knock-down of Ca-beta (Ca2+-channel-protein-beta-subunit) #3 came out at: mean viability with MMS 3.73e6. Ca-beta (Ca2+-channel-protein-beta-subunit) #4 gave mean viability with MMS 3.57e6.

Depletion of CG3097 came out at: mean viability with MMS 3.81e6. Silencing of CG13562 gave: mean viability with MMS 3.41e6. After knock-down of Ank (Ankyrin), the record shows mean viability with MMS 3.43e6. Against CG12268, the values are mean viability with MMS 3.57e6. CG14331 scored mean viability with MMS 3.66e6. Silencing of CG30487 came out at: mean viability with MMS 3.61e6.

Depletion of Est-Q (Esterase Q) gave: mean viability with MMS 3.51e6. Against NimB1 (Nimrod B1), the values are mean viability with MMS 3.70e6. With knock-down of tou (toutatis) #1, the record shows mean viability with MMS 3.94e6. After knock-down of tou (toutatis) #2, the record shows mean viability with MMS 3.11e6. CG42544 showed mean viability with MMS 3.47e6. Against CG34354 #1 the deposit lists mean viability with MMS 3.57e6.

Against CG34354 #2, the values are mean viability with MMS 2.86e6. Against CG34354 #3, the values are mean viability with MMS 2.83e6. Knock-down of CG34354 #4 resulted in: mean viability with MMS 3.68e6. Silencing of CG34354 #5 came out at: mean viability with MMS 3.39e6. Knock-down of Ublcp1 resulted in: mean viability with MMS 3.59e6. Silencing of AP-2mu (Adaptor Protein complex 2, mu subunit) resulted in: mean viability with MMS 3.65e6.

Against CG13280 the deposit lists mean viability with MMS 3.64e6. With knock-down of CG12831, the screen gave mean viability with MMS 3.64e6. CG6984 scored mean viability with MMS 3.59e6. Against qkr54B (quaking related 54B), the values are mean viability with MMS 3.71e6. Against CG5274 the deposit lists mean viability with MMS 3.52e6. Against Psf1 (Partner of Sld Five 1) the deposit lists mean viability with MMS 3.57e6.

Against Tsp42Ej (Tetraspanin 42Ej), the values are mean viability with MMS 3.55e6. With knock-down of CG9737 the results were mean viability with MMS 3.63e6. For CG10041, the values are mean viability with MMS 3.55e6. Depletion of CG12121 resulted in: mean viability with MMS 3.38e6. After knock-down of CG42537 the results were mean viability with MMS 3.69e6.
